Measurements taken from US20250290045A1, “SMALL MOLECULES AND METHODS FOR MODULATING TEMPORAL CONTROL OF GELATION AND HYDROGEL MECHANICS” (The Board of Trustees of the Leland Stanford Junior …, priority 2022, published 2025).
At least one read-out could not be matched to a standard name with certainty.

Assay: Modulus recovery of HELP hydrogel submerged in fresh PBS (competitor diffusion)
Type: physicochemical
Conditions: FIG. 13B, 10 mM competitor, n=3

CCCC=O [Butyraldehyde, butyraldehyde]
modulus recovery over 48 hours: slow recovery
